Screen size: about 390,000 compounds; about 910 (0.23%) were called active. This list was built around the results that the source calls inconclusive (neither active nor inactive); the mix of calls is not that of the screen. The call rests on the fitted dose curve; in most records, active means well fitted inhibition curve with a large enough effect; inconclusive means small, poorly fitted or top-dose-only effect; inactive means no such curve, though single readings can be large or run the other way. A potency beside an inconclusive call is a rough fit, not a confirmed value.
target: Ubiquitin carboxyl-terminal hydrolase 1 (Homo sapiens) (UniProt O94782); experiment: Inhibitors of USP1/UAF1: Primary Screen; settings: recombinant USP1/UAF1, Ub-Rhodamine cleavage fluorescence; series mostly up to 57.1 µM; further: nearly all actives have a fitted effect of over 60% in size
Outline: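 High-throughput fluorogenic screen: 1nM USP1/UAF1 complex, Ub-Rho substrate 150nM final, 50mM HEPES pH 7.8 with 0.5mM EDTA, 0.1 mg/ml BSA, 1mM TCEP and 0.01% Tween-20.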
Potency means the concentration at half of the fitted maximal effect.

Amino acid sequences for entries named in this document (tags omitted). A change or cut given only in a name is not applied to a line headed by its entry.
UniProt O94782: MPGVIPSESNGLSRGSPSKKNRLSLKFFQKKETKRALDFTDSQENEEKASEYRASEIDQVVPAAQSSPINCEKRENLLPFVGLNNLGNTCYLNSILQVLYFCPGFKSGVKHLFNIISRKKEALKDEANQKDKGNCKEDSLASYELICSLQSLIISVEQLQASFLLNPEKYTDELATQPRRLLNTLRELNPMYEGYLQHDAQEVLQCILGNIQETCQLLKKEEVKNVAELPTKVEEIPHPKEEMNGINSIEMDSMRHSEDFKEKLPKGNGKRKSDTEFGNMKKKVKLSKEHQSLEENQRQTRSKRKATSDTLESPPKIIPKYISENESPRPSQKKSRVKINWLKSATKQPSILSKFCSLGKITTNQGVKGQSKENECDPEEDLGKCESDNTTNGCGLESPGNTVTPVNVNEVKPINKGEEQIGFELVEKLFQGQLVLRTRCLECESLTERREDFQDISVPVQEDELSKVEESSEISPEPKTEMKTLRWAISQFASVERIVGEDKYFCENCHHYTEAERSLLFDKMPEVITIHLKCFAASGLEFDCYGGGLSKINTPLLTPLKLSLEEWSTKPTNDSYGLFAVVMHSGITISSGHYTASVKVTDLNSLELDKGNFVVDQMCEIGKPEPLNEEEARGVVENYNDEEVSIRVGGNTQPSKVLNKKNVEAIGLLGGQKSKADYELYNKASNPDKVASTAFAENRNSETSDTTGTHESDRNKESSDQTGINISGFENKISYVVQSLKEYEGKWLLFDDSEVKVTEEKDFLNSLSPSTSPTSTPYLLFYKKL

Potency, inconclusive:
COc1ccc2c(c1)CC/C(=C\c1ccc(C)o1)C2=O 44.7 µM [inhibitor, partial curve, poor fit]
COc1ccc(-n2nc3c(N4CCC(C(=O)NCc5ccccc5C)CC4)nnc(C)c3c2C)cc1 1.58 µM [inhibitor, full curve, poor fit]
Cn1ncc(SCc2ccccc2)c(Cl)c1=O 12.6 µM [inhibitor, partial curve, poor fit]
CC[C@]12c3[nH]c4cc(-c5ccco5)ccc4c3CCN1C(=O)[C@@H](CC(=O)NC/C=C(\C)CCC=C(C)C)C[C@@H]2C(=O)N1CCN(C(=O)c2ccco2)CC1 112 µM [inhibitor, partial curve, poor fit]
CCOc1ccccc1CNCCCSc1nnnn1C 56.2 µM [inhibitor, partial curve, poor fit]
C=C[C@@H]1c2cccc(C)c2N(S(=O)(=O)c2ccc(C)cc2)[C@H](c2ccc(OC(C)=O)cc2)C1(C#N)C#N 39.8 µM [inhibitor, partial curve, poor fit]
CC(=O)Nc1ccc(S(=O)(=O)NCCc2cn3nc(C)c(C)nc3n2)cc1 79.4 µM [inhibitor, partial curve, poor fit]
CC(=O)NC(Cc1ccccc1)Cc1ccccc1 1.12 µM [inhibitor, partial curve]
Oc1c(C(Nc2ccccn2)c2ccccc2F)ccc2cccnc12 (configuration not stated) 10 µM [inhibitor, partial curve, poor fit]
CC1=C(C(=O)OCc2cc(C)on2)N2C(=O)[C@@H](NC(=O)OCc3cc(C)on3)[C@H]2SC1 7.08 µM [inhibitor, partial curve, poor fit]
COc1cc2c(c(OC)c1)C(c1cccc(F)c1F)CC(=O)N2 (configuration not stated) 0.355 µM [inhibitor, full curve]
Cc1ccc(CNC(=O)c2cc(=O)c3cc(C)ccc3o2)cc1 7.08 µM [inhibitor, single point]
O=C(NCc1ccco1)C1CCN(C(=O)c2cc3sccc3n2Cc2ccc(Cl)cc2)CC1 35.5 µM [inhibitor, single point]
NC(=O)C1CCN(C(=O)COc2ccc3c4c(c(=O)oc3c2)CCCC4)CC1 5.01 µM [inhibitor, full curve, poor fit]
CC1CC1c1ccc(/C=C(\C#N)C(=O)Nc2cc(Cl)ccc2Cl)o1 (configuration not stated) 44.7 µM [inhibitor, partial curve, poor fit]
CCOc1ccc2oc(C(=O)N3CCN(Cc4ccccc4)CC3)c(C)c2c1 35.5 µM [inhibitor, single point]
COCCCNC(=O)Cn1c(=O)n(Cc2ccc(C(=O)NCc3ccc(C)cc3)cc2)c(=O)c2ccccc21 126 µM [inhibitor, partial curve, poor fit]
CC1=C(c2ccc(C)cc2)S(=O)(=O)N(Cc2ccc(C(=O)NCc3cccc(C)c3)cc2)C1=O 0.251 µM [inhibitor, full curve, poor fit]
COc1ccc(N2CCN(C(=O)c3cnc(N4CCCC4)nc3C)CC2)cc1 7.08 µM [inhibitor, single point]
CCOc1ccc(NC(=O)c2oc3ccccc3c2NC(=O)Cc2ccc(F)cc2)cc1 14.1 µM [inhibitor, partial curve, poor fit]
O=C(Cn1ncc2c3ccccc3n(Cc3ccc(Cl)cc3)c2c1=O)N1CCCCCC1 39.8 µM [inhibitor, partial curve, poor fit]
CCN(CC)C(=O)NCc1c(C)cc(C)cc1C 25.1 µM [inhibitor, partial curve]
O=C(NC(=S)Nc1ccc(N2CCOCC2)c(Cl)c1)c1cccs1 1.12 µM [inhibitor, full curve, poor fit]
CCCC12CN3CC(C)(CN(C1)C31C(=O)Nc3ccc(C)cc31)C2=O (configuration not stated) 7.08 µM [inhibitor, single point]
CC(=O)Oc1cc2c(C(=O)NCc3ccncc3)c(C)oc2c2ccccc12 17.8 µM [inhibitor, partial curve]
C[C@H]1CCCCO[C@H](CN(C)Cc2ccc(C(=O)O)cc2)[C@@H](C)CN([C@@H](C)CO)C(=O)c2cc(NS(=O)(=O)c3cn(C)cn3)ccc2O1 0.282 µM [inhibitor, full curve, poor fit]

Potency, inactive:
Cc1ccc2c(=O)c(C(=O)c3cccc(Cl)c3)cn(CC(=O)NC3CCCCC3)c2n1
Cc1cc(/C=C2\SC(=S)N(Cc3ccco3)C2=O)c(C)n1-c1cccnc1
Nc1ncnc2nc(SCC(=O)Nc3cccc(C(F)(F)F)c3)[nH]c12
O=Cc1ccc(C(=O)OCC(=O)Nc2ccc(F)cc2F)cc1
CCOC(=O)c1cc2c(=O)n3ccccc3nc2n(C(C)C)c1=NC(=O)C(C)(C)Oc1ccc(Cl)cc1
Cc1ccc(Cl)cc1NC(=O)c1cc2ccccc2cc1O
CCCC(C)NC(=O)CSc1nnc(-c2c[nH]c3ccccc23)o1 (configuration not stated)
Nc1cnn(Cc2ccc(F)cc2)c1
Cc1ccc(CNC(=O)C2CC=CCC2C(=O)O)cc1 (configuration not stated)
COc1ccc(OCC(O)Cn2c(=N)n(Cc3ccccc3)c3ccccc32)cc1 (configuration not stated)
COc1ccccc1C(=O)NC(=S)Nc1cccc2cc(O)ccc12
O=C(CCNS(=O)(=O)c1ccccc1)OCc1nnc(-c2ccccc2)o1
Cc1c(Cl)cccc1NC(=O)N1CCC(CN2CCCC2)CC1
CC(=O)Nc1ccc(NC2=CC(=O)c3ccccc3C2=O)cc1
O=C(NNc1c2ccccc2nc2ccccc12)c1ccccc1Cl
CC(NC(=O)C(=O)NCCCn1ccnc1)c1ccccc1 (configuration not stated)

2 compounds drawn at random from the list so far, as already listed:
Potency, inactive:
O=Cc1ccc(C(=O)OCC(=O)Nc2ccc(F)cc2F)cc1
Nc1cnn(Cc2ccc(F)cc2)c1

A run of entries of the results above, for reference:
Potency, inactive:
Cc1cc(/C=C2\SC(=S)N(Cc3ccco3)C2=O)c(C)n1-c1cccnc1
Nc1ncnc2nc(SCC(=O)Nc3cccc(C(F)(F)F)c3)[nH]c12
